Laboratory results from paper PMC2905333.
Results are given in words; binding and its absence hold for the method and conditions named. For some assays here: In cells and extracts the contact can be indirect. Some results given as binding are weak or reduced against the parent protein; the word gives no strength. Where a sequence is shown, tags or fusion partners need not be part of it.

Amino acid sequences for entries named in this document (tags omitted).
UniProt P49069: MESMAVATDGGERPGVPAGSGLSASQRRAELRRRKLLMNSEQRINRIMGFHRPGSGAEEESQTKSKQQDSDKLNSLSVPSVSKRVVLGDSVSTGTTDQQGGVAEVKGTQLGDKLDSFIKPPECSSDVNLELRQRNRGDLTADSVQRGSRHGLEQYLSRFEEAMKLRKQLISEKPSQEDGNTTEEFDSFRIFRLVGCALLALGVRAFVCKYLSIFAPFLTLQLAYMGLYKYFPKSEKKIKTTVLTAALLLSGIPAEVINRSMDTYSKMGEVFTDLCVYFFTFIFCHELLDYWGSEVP

Columns and labels:
RNF122-myc (human) = molecular target: T1, RNF122-myc (human) (UniProt Q9H9V4); test: co-IP; HEK293T cotransfected with RNF122-myc or mut-RNF122-myc and CAML-FLAG; 2.5 μg/mL MG132 for 6 h; lysed in PBS with 1% Triton X-100; immunoprecipitated with anti-myc antibody agarose beads, blot with anti-FLAG
T1 sequence: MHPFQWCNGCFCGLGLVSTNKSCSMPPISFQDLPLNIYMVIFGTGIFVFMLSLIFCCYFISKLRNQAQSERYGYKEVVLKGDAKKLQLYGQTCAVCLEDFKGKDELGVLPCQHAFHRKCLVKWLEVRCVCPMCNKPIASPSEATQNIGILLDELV

[1] = molecular target: T2, RNF122 bait (Gal4 DNA-binding domain fusion) (human) (UniProt Q9H9V4); test: two-hybrid; Gal4 system; RNF122 bait (pGBK-RC) and prey vectors (pGAD-RC, library of 1500 known genes) cotransfected in yeast Y190, SD/-T-L-H, colony lift filter assays
T2 sequence: T1 sequence

| binding (RNF122-myc (human)) | binding [1] | Substance |
| --- | --- | --- |
| binds |  | FLAG-tagged CAML (CAML-FLAG) (from UniProt P49069 1-296) |
|  | binds | CAML prey (Gal4 activation domain fusion) (from UniProt P49069 1-296) |
